# About 210 (0.4%) of roughly 52,000 sequences were called active.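 Rule for the calls: active = gene whose silencing raises cell survival under the drug, median off-target-corrected z-score across its silencing RNAs 2 or more; inactive = the rest.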 The list shows a part of the results.
# Test: Resistance to Poly (ADP-Ribose) Polymerase inhibitor: Gene Identification via Genome-wide siRNA Screen
# Settings: mouse BRCA2 R2336H ES cells, olaparib, CellTiter-Glo viability; stronger effect = higher value
# Method in brief: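 Genome-wide siRNA screen (3 siRNAs/gene, 20 nM) in mouse ES cells carrying hypomorphic BRCA2 R2336H; olaparib 500 nM added 48 h post-transfection, CellTiter-Glo viability 72 h later. Normalized to plate-median negative control; MAD z-scores, gene median, seed-adjusted.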
row,Sequence,z-score
1,GGAGAUUUGGAAAAGGCAATT against Clecsf13,inactive: -1.17
2,GGUCAUUGCUUCCUAUGGCTT against Mgat1,inactive: -0.62
3,GCUGUAAGCCAAUUAACAUTT against Emp1,inactive: 0.6
4,GGAAAAAUUUUGGAUUCAGTT against Hmgb2l1,inactive: 0.944
5,GGCGAUUUUGUGACUUCGUTT against Zadh1,inactive: 0.44
6,CGAGGUCUAUGAGGUAGACTT against Tekt3,inactive: 1.37
7,GGAAACAUAAGCAAAAACUTT against Vipr2,inactive: -0.0309
8,GGAUGUGAGGUGCACCAGATT against Trpv6,inactive: -0.941
9,GGAAUUGAGUAGCAGCUGATT against Polr2j,inactive: -1.9
10,GGCCAACCUGGAGAACUUGTT against Atp6v1c2,inactive: 0.198
11,CGAUGAAAACUACUCGGCATT against Runx1,inactive: 2.08
12,GGUGAAUUAUUGCUUUGAGTT against 2310004I24Rik,inactive: 2.15
13,GGUUUUUACCUACACUUGUTT against Rdh10,inactive: -0.892
14,GGACCCGAAAAUAAUAUAGTT against Rasgef1b,inactive: -0.102
15,GGCCCUCAUCUUUGUGUCCTT against Mgll,inactive: 0.776
16,GGAGUUUUACCAGAAGCUGTT against Hs1bp3,inactive: -0.65
17,CGCAGCAGGAAUCAGGAAUTT against AW550801,inactive: 0.554
18,GGUAGUGUCCCUGUAUUCCTT against Bok,inactive: 1.2
19,GGAUCUUAUGCGAAGCCGCTT against C130098D09,inactive: 0.175
20,GGUUGGAGUUAUAGAUUUUTT against D5Bwg0860e,inactive: 1.81
21,GGAACAGAAAACCAUAUAATT against 4933437K13Rik,inactive: -1.42
22,GCUUAAGAAUCGAAAAGAGTT against AA792894,inactive: -0.618
23,GGAGUCAGUACUGUAAAAUTT against Rin2,inactive: 0.119

row,Sequence,z-score
1,GGCACCUAUGAGGUUCUAUTT against Rgpr,inactive: -1.39
2,CAUGAUCGAUACCAUCACATT against Adcy1,inactive: -0.0474
3,GCAUGAAUCGUGCGAAGAUTT against 9030612M13Rik,inactive: -1.3
4,GGGAAGACAUGUGAAAAUGTT against Slc17a1,inactive: -0.276
5,GGAAGGGAGACAAAAUAUATT against 9630008K15Rik,inactive: -0.385
6,GGAAAAGUUGGACUUUUAUTT against 2610034K17Rik,inactive: 0.256
7,GGACAAGUGUGUUGAUGGUTT against 6430510M02Rik,inactive: -0.366
8,GGCUAGGUAAUCACUGGGUTT against 9230118O15Rik,inactive: 0.56
9,GGGCGGAGAAUGAAGCUUUTT against D930035B09Rik,inactive: 1.55
10,GGGAACAAGGUCAUCUCCUTT against Olfr1444,inactive: 2.25
11,GGCUUCUGUGGGAAUCACATT against Ednrb,inactive: -2.13
12,GCCACAAUACUUCCAGCAATT against Tnr,inactive: -0.918
13,GGCUUACCUUAUUGUGAUCTT against Psen2,inactive: -0.929
14,GCCUACAAAACAACACUACTT against LOC434439,inactive: 0.33
15,GGAGUUAUCCGUAUUAGUGTT against BC019206,inactive: -1.44
16,GGAGAAUGAGUGGUAUCUGTT against Msh2,inactive: 0.0286
17,GCCUCUACUUUACCAAGUUTT against Olfr883,inactive: -0.309
18,CCAUUUACCAUAAGUUCUUTT against 1810009O10Rik,inactive: 0.0703
19,CGACGAGGAAUAACCUCUCTT against Myh6,inactive: 0.524
20,GGAAAACAUACCAUGUAUGTT against Zfp322a,inactive: 0.0362
21,GGGUUCUCUACCUCAUCCUTT against Uts2r,inactive: 2.15
22,GGAAAUGGGAUUUAAGGAATT against 6030441H18Rik,inactive: -1.87
23,GGCCCUUUAUUCUUAAAAGTT against Gpr88,inactive: 0.622

# Copied from the listing for reference:
row,Sequence,z-score
4,GGGAAGACAUGUGAAAAUGTT against Slc17a1,inactive: -0.276
5,GGAAGGGAGACAAAAUAUATT against 9630008K15Rik,inactive: -0.385
6,GGAAAAGUUGGACUUUUAUTT against 2610034K17Rik,inactive: 0.256
7,GGACAAGUGUGUUGAUGGUTT against 6430510M02Rik,inactive: -0.366
8,GGCUAGGUAAUCACUGGGUTT against 9230118O15Rik,inactive: 0.56
9,GGGCGGAGAAUGAAGCUUUTT against D930035B09Rik,inactive: 1.55
10,GGGAACAAGGUCAUCUCCUTT against Olfr1444,inactive: 2.25
11,GGCUUCUGUGGGAAUCACATT against Ednrb,inactive: -2.13
12,GCCACAAUACUUCCAGCAATT against Tnr,inactive: -0.918
13,GGCUUACCUUAUUGUGAUCTT against Psen2,inactive: -0.929
14,GCCUACAAAACAACACUACTT against LOC434439,inactive: 0.33
15,GGAGUUAUCCGUAUUAGUGTT against BC019206,inactive: -1.44
16,GGAGAAUGAGUGGUAUCUGTT against Msh2,inactive: 0.0286
17,GCCUCUACUUUACCAAGUUTT against Olfr883,inactive: -0.309
18,CCAUUUACCAUAAGUUCUUTT against 1810009O10Rik,inactive: 0.0703
19,CGACGAGGAAUAACCUCUCTT against Myh6,inactive: 0.524
20,GGAAAACAUACCAUGUAUGTT against Zfp322a,inactive: 0.0362

# Following part.

row,Sequence,z-score
1,CGUGGACUCUAUAAUCAACTT against BC019977,inactive: 0.281
2,GGACACCUACCAAAAGUUATT against Cd9,inactive: 1.06
3,GGCCAAAUAACCUAGUAAUTT against Bxdc1,inactive: 0.111
4,GGAUGCUGGUUCUUUUGGUTT against 4921513O04,inactive: -1.26
5,GGAAGAGCAACUGCUACAATT against Rnase1,inactive: 0.294
6,GGCUUCUCCAAAGCUUUAGTT against Dkkl1,inactive: 0.341
7,CGAACGAUUGAAGAUUUCUTT against Nat3,inactive: -0.848
8,CGCAAGGAAAAAAAGUAAGTT against Slc16a13,inactive: 0.665
9,GGAGAAGCAGUUUCUGAAUTT against Bsn,inactive: 0.187
10,CGAAGAGUUUAAGUCCAUGTT against Bnip1,inactive: -0.148
11,GCCAGAGCGGAUUAUUGGATT against Cbx1,inactive: -1.24
12,GGAUUUCAAAAACCACGUGTT against Snx1,inactive: 1.02
13,GGAGUAGGAACAAAAAUUGTT against Polb,inactive: -2.43
14,GGACUGUUUUGUCUUGAAGTT against LOC331392,inactive: -0.0809
15,CCAGUACGAACUCUUCCGUTT against Prkcbp1,inactive: 1.18
16,GGCUUUGAGUAUCAAAAUATT against Pfpl,inactive: 0.44
17,CCAAUACUACAUAAUGUCUTT against Abcc12,inactive: 0.329
18,GCCCAUUGUUACCUUGUACTT against AV071179,inactive: 0.643
19,GGACCCUCCAGGUUACAUUTT against Ptpn18,inactive: -1.02
20,GGUCCUCAAAUGAAAAAGATT against Wbscr24,inactive: -0.911
21,CCCGAACCUUAGUAAAUGUTT against Psmd8,inactive: -2.87
